{"source": "patent US5914235A", "about": "(Eli Lilly and Company, priority 1997, dated 1999)", "system": "I2 binding sites", "note": "Like-named read-outs stand apart in the source and are kept apart here.", "data": [{"smiles": "c1ccc2oc(C3=NCCN3)cc2c1", "note": "[[^3 H]BFI, 2-(2-benzofuranyl)-2-imidazoline]", "values": [{"measurement": "[^3 H]BFI bound in human kidney", "setting": "absence of TCP", "value": "772±96", "unit": "fmol/mg protein"}, {"measurement": "[^3 H]BFI bound in human kidney", "setting": "presence of 1 μM TCP", "value": "6741±714", "unit": "fmol/mg protein"}]}]}
